PubChem BioAssay AID504793 – Drosophila RNAi Screening Center – 2011
The deposit covers about 23,000 reagents; this is a random part of those with a known target gene and a result. Over the whole deposit, 62 (0.27%) are marked active. 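Calls come from follow-up tests whose scores are not deposited, so confirmed genes may have low counts here; counts are not normalised per plate.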 Raw values vary from plate to plate and are shown uncorrected. A plus sign joins genes that one reagent is predicted to hit.

- Test: 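Knock-downs allowing continued mitosis even though DNA is damaged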 (primary screen)
- System: Drosophila S2R+ cells
- Knock-down reagent: long dsRNA against Drosophila genes, about 0.25 µg dsRNA per well
- Timing: 4 days of dsRNA, then 4 hours of drug before read-out
- Treatment: doxorubicin 0.5 µM for 4 hours to cause double-strand breaks, in cells also given a low, harmless dose of dsRNA against nbs to sensitise the assay
- Read-out: 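Per-well count of mitotic cells stained for phospho-histone H3 after doxorubicin exposure, used as mitotic index; counts are raw and not normalised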
- Direction: mitotic cells: higher = more cells in mitosis, weaker G2 arrest
- Call rule: 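a call needs confirmation in secondary tests, with other dsRNAs and a check of mitotic timing without damage, not just a high primary count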
- Meaning of the calls: active = confirmed in follow-up tests; inactive = not confirmed

The opening 13 records, ahead of the listing:
target,DRSC id,"mitotic cells, replicate 1","mitotic cells, replicate 2",Outcome
Eig71Ec (Ecdysone-induced gene 71Ec),DRSC11150,3,,inactive
Hpf1 (Histone PARylation factor 1),DRSC12202,4,,inactive
CG15296,DRSC17983,11,,inactive
CG15296,DRSC26051,6,,inactive
CG10657,DRSC09768,2,20,inactive
CG10657,DRSC27483,8,,inactive
CG18605,DRSC06772,7,,inactive
CG18605,DRSC26583,13,,inactive
CG15432,DRSC00447,9,,inactive
CG15432,DRSC23618,2,,inactive
hlk (hulk),DRSC05021,5,,inactive
hlk (hulk),DRSC05022,9,,inactive
hlk (hulk),DRSC26150,4,,inactive

The list itself, repeating the preview:
target,DRSC id,"mitotic cells, replicate 1","mitotic cells, replicate 2",Outcome
Eig71Ec (Ecdysone-induced gene 71Ec),DRSC11150,3,,inactive
Hpf1 (Histone PARylation factor 1),DRSC12202,4,,inactive
CG15296,DRSC17983,11,,inactive
CG15296,DRSC26051,6,,inactive
CG10657,DRSC09768,2,20,inactive
CG10657,DRSC27483,8,,inactive
CG18605,DRSC06772,7,,inactive
CG18605,DRSC26583,13,,inactive
CG15432,DRSC00447,9,,inactive
CG15432,DRSC23618,2,,inactive
hlk (hulk),DRSC05021,5,,inactive
hlk (hulk),DRSC05022,9,,inactive
hlk (hulk),DRSC26150,4,,inactive
mRNA-cap (mRNA-capping-enzyme),DRSC19789,14,,inactive
Jwa,DRSC02048,6,,inactive
Jwa,DRSC26655,8,,inactive
CG31038,DRSC15051,4,,inactive
CG31038,DRSC16326,11,,inactive
CG31038,DRSC16327,11,,inactive
CG31038,DRSC25740,9,,inactive
lncRNA:noe (long non-coding RNA:noe),DRSC22747,15,,inactive
lncRNA:noe (long non-coding RNA:noe),DRSC24139,3,,inactive
CG9121,DRSC03142,7,,inactive
CG33337,DRSC13632,6,14,inactive
CG33337,DRSC27000,4,,inactive
CG1909,DRSC17150,3,,inactive
alpha-Est4 (alpha-Esterase-4),DRSC12616,4,,inactive
alpha-Est4 (alpha-Esterase-4),DRSC27280,11,,inactive
CG3106,DRSC18279,6,,inactive
CG3106,DRSC29465,7,,inactive
kibra,DRSC14533,9,,inactive
kibra,DRSC23283,9,,inactive
kibra,DRSC29376,5,,inactive
CG9380,DRSC04549,5,,inactive
wrapper,DRSC04723,6,,inactive
CG5043,DRSC02805,4,,inactive
CG5043,DRSC25720,14,,inactive
Bcat (Branched chain amino acid transaminase),DRSC19756,12,,inactive
Bcat (Branched chain amino acid transaminase),DRSC28324,7,,inactive
CG9368,DRSC11067,7,,inactive
CG9368,DRSC24280,5,,inactive
Cyp4ac3 (Cytochrome P450 4ac3),DRSC03304,5,,inactive
betaCOP (Coat Protein (coatomer) beta),DRSC20312,18,,inactive
betaCOP (Coat Protein (coatomer) beta),DRSC27169,11,,inactive
Hsp70Bb + Hsp70Bbb,DRSC15885,7,,inactive
CG11110,DRSC06037,8,,inactive
CG11110,DRSC27355,8,,inactive
CG12643,DRSC17849,10,,inactive
CG12643,DRSC24898,6,,inactive
trbl (tribbles),DRSC11901,1,,inactive
mms4 (Methyl methanesulfonate sensitivity 4),DRSC06249,13,,inactive
Rab9Db + Rab9D + Rab9Fa + 1 more,DRSC17662,5,,inactive
CG30485,DRSC06376,12,,inactive
sno (strawberry notch),DRSC20378,4,,inactive
CG42758,DRSC10021,1,,inactive
jdp,DRSC16975,7,,inactive
jdp,DRSC29394,7,,inactive
CG9222,DRSC03158,6,,inactive
CG7668,DRSC10901,12,,inactive
BI-1 (Bax Inhibitor-1),DRSC10782,4,,inactive
anne (anne boleyn),DRSC17103,2,,inactive
anne (anne boleyn),DRSC29952,6,,inactive
pns (pinstripe),DRSC08598,8,,inactive
fd3F + CG42499 (retired record),DRSC18160,11,,inactive
fd3F + CG42499 (retired record),DRSC18161,8,,inactive
fd3F + CG42499 (retired record),DRSC28554,7,,inactive
CG5773,DRSC06955,5,,inactive
CG5773,DRSC28940,17,,inactive
salm (spalt major),DRSC03606,3,,inactive
salm (spalt major),DRSC29912,4,,inactive
CG4119,DRSC17741,10,,inactive
CG4119,DRSC27945,16,,inactive
Coq7 + shf,DRSC18448,9,,inactive
Lnpk (Lunapark),DRSC07254,4,,inactive
Lnpk (Lunapark),DRSC29127,9,,inactive
Cht10 (Chitinase 10),DRSC03766,10,,inactive
Cht10 (Chitinase 10),DRSC03767,7,,inactive
Cht10 (Chitinase 10),DRSC03768,5,,inactive
CG1208,DRSC12190,9,,inactive
Osi3 (Osiris 3),DRSC12175,4,,inactive
Ns1 (Nucleostemin 1),DRSC15529,7,,inactive
CG7728,DRSC10907,3,,inactive
CG7728,DRSC28948,7,,inactive
Lgr1 (Leucine-rich repeat-containing G protein-coupled receptor 1),DRSC16675,10,,inactive
CG15125,DRSC06547,11,,inactive
CG4842,DRSC10453,9,,inactive
PIG-H (Phosphatidylinositol glycan anchor biosynthesis class H),DRSC14856,8,,inactive
CG1552,DRSC19665,7,,inactive
CG1552,DRSC25533,5,,inactive
smid (smallminded),DRSC11398,1,,inactive
smid (smallminded),DRSC28019,6,,inactive
CG14629,DRSC18476,18,,inactive
CG14629,DRSC23909,3,,inactive
Pp1-13C (Protein phosphatase 1 at 13C),DRSC20269,25,,inactive
Pp1-13C (Protein phosphatase 1 at 13C),DRSC23305,4,,inactive
Pp1-13C (Protein phosphatase 1 at 13C),DRSC27492,11,,inactive
CG4483,DRSC10426,8,,inactive
Hibch (3-hydroxyisobutyryl-CoA hydrolase),DRSC15705,11,,inactive
Hibch (3-hydroxyisobutyryl-CoA hydrolase),DRSC27536,2,,inactive
CG31633,DRSC02275,2,,inactive
CG31633,DRSC27022,4,,inactive
CG8060,DRSC07064,7,,inactive
mlt (mulet),DRSC06120,2,,inactive
mlt (mulet),DRSC27515,7,,inactive
Bace (beta-site APP-cleaving enzyme),DRSC02197,2,,inactive
Bace (beta-site APP-cleaving enzyme),DRSC28723,4,,inactive
CG33143,DRSC04151,6,,inactive
CG33143,DRSC04454,4,,inactive
CG33143,DRSC27587,4,,inactive
Hmr (Hybrid male rescue),DRSC17740,4,,inactive
LRR (Leucine-rich repeat),DRSC06444,4,,inactive
LRR (Leucine-rich repeat),DRSC24790,9,,inactive
Ugt37A1 (UDP-glycosyltransferase family 37 member A1),DRSC02114,3,,inactive
CG8301,DRSC16405,4,,inactive
CG8301,DRSC28170,4,,inactive
CG11961,DRSC06099,,,inactive
CG13605,DRSC14608,7,,inactive
CG13369,DRSC18481,13,,inactive
CG13369,DRSC29455,3,,inactive
Dap160 (Dynamin associated protein 160),DRSC03313,7,,inactive
Dap160 (Dynamin associated protein 160),DRSC27467,3,,inactive
CR31700 (pseudo),DRSC03682,9,,inactive
CG32225,DRSC09657,7,,inactive
CG32225,DRSC26362,4,,inactive
CG33475,DRSC22943,6,,inactive
unc-13-4A,DRSC10201,6,,inactive
unc-13-4A,DRSC10202,9,,inactive
unc-13-4A,DRSC11013,4,,inactive
AstA-R1 (Allatostatin A receptor 1),DRSC17278,9,,inactive
AstA-R1 (Allatostatin A receptor 1),DRSC17727,3,,inactive
CG18473,DRSC16381,10,,inactive
euc (eucalyptus),DRSC14492,9,,inactive
Gr22d (retired record),DRSC21653,10,,inactive
Gr22d (retired record),DRSC25985,7,,inactive
CG7824,DRSC16321,5,,inactive
Septin2 (Septin 2),DRSC16855,6,,inactive
mRpS24 (mitochondrial ribosomal protein S24),DRSC28886,4,,inactive
yellow-d2,DRSC04591,7,,inactive
CG7296,DRSC03042,11,11,inactive
CG7296,DRSC22343,11,,inactive
CG7296,DRSC25754,6,,inactive
